# Source: PubChem BioAssay AID587 (National Center for Advancing Translational Sciences (NCATS), 2007)
# Among all 59,000 compounds or so, about 35 (0.06%) were called active. The shares of active, inactive and inconclusive entries below differ from those in the screen. No stated cut-off is given here; in the data, active means max dye-equivalent concentration above about 10 nM; inconclusive means between about 1.1 nM and that limit; inactive means weaker than that.
# Experiment: qHTS Assay for Spectroscopic Profiling in Texas Red Spectral Region
# Details: Compound fluorescence, Texas Red channel, 547/618 nm; active compounds read high
# How it was run: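 Compound titrations in 100 mM Tris pH 8.0 were incubated 15 min at room temperature and read at 547 nm excitation / 618 nm emission. Texas Red six-point standard curve on each plate converted fluorescence to dye-equivalent concentration.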
row,Structure (SMILES),max dye-equivalent concentration
1,Cc1noc(C)c1C(=O)Nc1sc2c(c1C(N)=O)CCCCC2,inconclusive: 2.3 nM
2,Cn1c(SCC(=O)NCc2cccs2)nnc1-c1ccncc1,inconclusive: 1.6 nM
3,Cc1cc(C)n(-c2ccc(C(=O)NCc3ccc4c(c3)OCO4)cc2)n1,inconclusive: 1.9 nM
4,CC(C)C(=O)Nc1ccc(NC(=O)c2ccco2)cn1,inconclusive: 1.1 nM
5,O=C(O)/C(=C\c1ccccc1)Cc1ccccc1,inactive
6,COC(=O)CSc1n[nH]c(-c2ccncc2)n1,inconclusive: 1.2 nM
7,CCCOc1ccc2oc(=O)c3c(c2c1)CCCN3C(=O)CN(C)Cc1ccccc1,inconclusive: 1.3 nM
8,COc1ccc2cc3c(N)c(C(=O)NCc4ccco4)sc3nc2c1,inactive
9,O=c1c(-c2ccccc2)nc2cnc(N3CCOCC3)nc2n1Cc1ccc(F)cc1,inactive
10,O=C(NCC1COc2ccccc2O1)c1ccc(NC(=O)c2ccco2)cc1 (stereo unspecified),inconclusive: 1.5 nM
11,Cc1ccc(NC(=O)CCCC(=O)O)c(Br)c1,inconclusive: 1.5 nM
12,Cc1ccc2nc(N/N=C\c3cccc(C)n3)cc(C)c2c1,inactive
13,O=C(NCCCN1CCOCC1)c1coc2ccccc2c1=O,inconclusive: 1.2 nM
14,O=c1c2ccccc2nnn1CSc1nnc(C2COc3ccccc3O2)n1-c1ccccc1 (stereo unspecified),inconclusive: 1.4 nM
15,Cn1c(=O)c2c(nc(Sc3nc4ccccc4n3CC(=O)N3CCCCC3)n2C)n(C)c1=O,inconclusive: 2.1 nM
16,Cc1noc(C)c1CSCC(=O)OCC(=O)Nc1sccc1C#N,inconclusive: 1.9 nM
17,O=C(CSc1cccc2cccnc12)N1CCCC1,inconclusive: 1.2 nM
18,CCCCCOc1ccc(NS(C)(=O)=O)cc1,inconclusive: 2.1 nM
19,Cc1ccc2oc(C(=O)Nc3c(C)n(C)n(-c4ccccc4)c3=O)c(C)c2c1,inconclusive: 1.4 nM
20,COCCn1c(=O)c(-c2ccccc2)nc2cnc(Oc3ccc(OC)cc3)nc21,inactive
21,CC(=O)N(C(C)=O)c1c(N2CCOCC2)c2ccccc2oc1=O,inconclusive: 1.1 nM
22,CCCCC(=O)NCCNc1nc2c(c(=O)n(C)c(=O)n2C)n1Cc1ccccc1,inconclusive: 1.7 nM

row,Structure (SMILES),max dye-equivalent concentration
1,Cc1noc2nc(-c3cccs3)cc(-c3nnc4n3CCCCC4)c12,inconclusive: 1.7 nM
2,COC(=O)c1ccc(CSc2ccc3nnc(-c4ccc(OC)c(OC)c4)n3n2)o1,inconclusive: 1.2 nM
3,CCOC(=O)Cn1c(C)c(C#N)c2ccccc21,inconclusive: 2.8 nM
4,N#CCSc1nnc2c(Cl)cc(Cl)cn12,inconclusive: 1.1 nM
5,Nc1c(Nc2ccccc2)c2ccccc2oc1=O,inconclusive: 1.1 nM
6,CCOC(=O)CNC(=O)CSc1nc2ncc(Br)cc2[nH]1,inconclusive: 2.6 nM
7,COc1ccc(-n2cnnc2SC(C)c2nc3sc(C)c(C)c3c(=O)[nH]2)cc1 (stereo unspecified),inconclusive: 2.1 nM
8,CCOC(=O)CC(=O)CSc1nnc(Cn2c(=O)sc3ccccc32)n1C,inconclusive: 1.3 nM
9,Cc1ccc2cc(C#N)c(NCCCNC(=O)C3CCCO3)nc2c1 (stereo unspecified),inconclusive: 1.8 nM
10,COc1ccc(C(=O)NCCc2c[nH]c3ccccc23)cc1S(=O)(=O)N1CCOCC1,inconclusive: 1.2 nM
11,COc1cc(NC(=O)CN2C(=O)NC(C)(CCC(C)C)C2=O)cc(OC)c1 (stereo unspecified),inconclusive: 1.2 nM
12,COc1ccc(NC(=O)c2cccs2)cc1O,inconclusive: 1.5 nM
13,CC1(C)CC(=O)C2=C(C1)NC(SCC(=O)Nc1ccccc1)=C(C#N)C2c1ccco1 (stereo unspecified),inconclusive: 1.2 nM
14,O=C(NC(Cc1ccccc1)C(=O)N1CCN(c2ccccn2)CC1)c1ccco1 (stereo unspecified),inconclusive: 1.7 nM
15,CN(C)S(=O)(=O)c1cccc(-c2nnc(SCc3ccc4c(c3)OCCO4)o2)c1,inconclusive: 1.1 nM
16,COC(=O)C1CCN(Cc2cc(=O)oc3cc(OC)ccc23)CC1,inconclusive: 1.8 nM
17,Cc1ccc(N(C(=O)CNC(=O)c2ccco2)C(C(=O)NC2CCCC2)c2cccnc2)cc1C (stereo unspecified),inconclusive: 1.6 nM
18,O=C(Nc1cc(C(F)(F)F)ccc1N1CCCCC1)c1ccco1,inconclusive: 1.6 nM
19,CC(=O)N(C[C@@H](O)CO)c1c(I)c(C(=O)NC[C@@H](O)CO)c(I)c(C(=O)NC[C@@H](O)CO)c1I,inactive
20,CCCCNC(=O)Nc1ccnn1C1CCCCC1,inconclusive: 1.1 nM
21,NC(=O)N1CC(O)CC1C(=O)Nc1ccc(Cl)c(Cl)c1 (stereo unspecified),inconclusive: 1.1 nM
22,CCOc1cc(C2/C(=C(/O)c3ccc(OC(C)C)cc3)C(=O)C(=O)N2CCCOC)ccc1O (stereo unspecified),inconclusive: 2.5 nM

# Pulled by compound from the entries so far, 3 records:
row,Structure (SMILES),max dye-equivalent concentration
19,CC(=O)N(C[C@@H](O)CO)c1c(I)c(C(=O)NC[C@@H](O)CO)c(I)c(C(=O)NC[C@@H](O)CO)c1I,inactive
7,COc1ccc(-n2cnnc2SC(C)c2nc3sc(C)c(C)c3c(=O)[nH]2)cc1 (stereo unspecified),inconclusive: 2.1 nM
15,CN(C)S(=O)(=O)c1cccc(-c2nnc(SCc3ccc4c(c3)OCCO4)o2)c1,inconclusive: 1.1 nM

# (continued)

row,Structure (SMILES),max dye-equivalent concentration
1,O=C(c1ccc(OCCN2CCCCC2)cc1)c1c(-c2ccc(O)cc2)sc2cc(O)ccc12,inconclusive: 1.3 nM
2,O=C1c2ccccc2-c2n[nH]c3cccc1c23,inactive
3,O=C(COC(=O)c1ccc[nH]c1=O)c1ccc(Cl)s1,inconclusive: 1.3 nM
4,COc1ccc(OC)c(N/C(C)=C/C(=O)c2ccc(C)o2)c1,inconclusive: 2.2 nM
5,CCn1c(N2CCN(CC(=O)c3c[nH]c4ccccc34)CC2)nc2c1c(=O)[nH]c(=O)n2C,inconclusive: 1.5 nM
6,Cc1ccc(Nc2nnc(SCc3cc(=O)n4ccsc4n3)s2)c(C)c1,inconclusive: 2.3 nM
7,COC(=O)c1ccccc1NC(=O)c1cccs1,inconclusive: 1.2 nM
8,Cn1cccc1C(=O)OCc1csc(-c2ccccc2)n1,inconclusive: 1.3 nM
9,CCOC(=O)CC(=O)CSc1nc(C)cc(-c2cccnc2)c1C#N,inconclusive: 1.1 nM
10,O=C(c1cc2ccccc2oc1=O)N1CCSC1c1ccco1 (stereo unspecified),inconclusive: 1.4 nM
11,COc1ccc(C(C)NC(=O)C2CCCO2)cc1OC (stereo unspecified),inconclusive: 1.2 nM
12,NC(=O)c1cc2ccc(O)cc2oc1=Nc1ccccc1,inactive
13,O=C(CS(=O)(=O)Cc1ccccc1)Nc1cccnc1,inconclusive: 2.6 nM
14,CC1(C)CC(=O)C2=C(C1)OC(N)=C(C#N)C2CCc1ccccc1 (stereo unspecified),inconclusive: 3 nM
15,CCC(C)(C)NC(=O)CN(C(=O)c1snc(C(N)=O)c1N)c1ccc2c(c1)OCCO2,inconclusive: 1.3 nM
16,C=CCn1c(=O)/c(=C/c2ccc(Cl)cc2)s/c1=C(/C#N)c1nnc2n1CCCCC2,inactive
17,CC(=O)O[C@@H]1CC[C@]2(C)[C@H]3CC[C@]4(C)[C@H](C[C@H]5CCCC[C@@]54C(C)=O)[C@@H]3CC(=O)[C@@]2(O)C1,inconclusive: 1.1 nM
18,CCC(=O)c1ccc(OCC(=O)N2CCc3cc(OC)c(OC)cc3C2)cc1,inactive
19,CCOc1ccccc1NC(=O)CSc1nnc(-c2ccccc2Cl)n1Cc1ccco1,inconclusive: 1.9 nM
20,CC(=O)Nc1cccc(NC(=O)c2cc(C)on2)c1,inconclusive: 1.1 nM
21,NCCCCCc1nnc(SCc2cccc(Cl)c2)o1,inconclusive: 1.5 nM
22,CC(C)(C)c1cc(CN2CCN(CCO)CC2)cc(C(C)(C)C)c1O,inconclusive: 2.2 nM

row,Structure (SMILES),max dye-equivalent concentration
1,CC(C)C(C(=O)NCC1CCCO1)N(Cc1ccco1)C(=O)CNS(=O)(=O)c1ccccc1 (stereo unspecified),inconclusive: 1.6 nM
2,CCCCCN(C(=O)NC(=O)NCCCC)S(C)(=O)=O,inconclusive: 2 nM
3,COc1cc2c(cc1OC)CN(C(=O)COc1ccc(C)c(C)c1)CC2,inconclusive: 1.3 nM
4,O=C1CCCCCC1C1(O)C(=O)Nc2ccc(Br)cc21 (stereo unspecified),inconclusive: 1.1 nM
5,CC1CCCN(CC(=O)Nc2ccc(S(=O)(=O)NC3CCCCC3)cc2)C1 (stereo unspecified),inconclusive: 2.3 nM
6,Cn1nnnc1SCCNCc1cccc2ccccc12,inconclusive: 1.2 nM
7,Cc1onc(-c2c(F)cccc2Cl)c1C(=O)NCc1cccs1,inconclusive: 1.4 nM
8,O=c1cc(-c2ccc(O)cc2)oc2c([C@H]3O[C@@H](CO)[C@@H](O)[C@@H](O)[C@@H]3O)c(O)cc(O)c12,inconclusive: 1.3 nM
9,O=C(C(NS(=O)(=O)c1cccs1)c1ccccc1)N1CCN(c2ccccc2)CC1 (stereo unspecified),inconclusive: 1.1 nM
10,CCN1CCN(C(c2cccs2)C(C)NC(=O)c2ccccc2F)CC1 (stereo unspecified),inconclusive: 2 nM
11,CN(Cc1nc2ccccc2n1C)S(=O)(=O)c1ccc(Cl)cc1,inconclusive: 1.2 nM
12,O=C(c1ccco1)N(CCCN1CCOCC1)c1nc(-c2ccc(Cl)cc2)cs1,inconclusive: 1.2 nM
13,O=C(Cn1c(-c2ccccc2)noc1=O)Nc1ccc(N2CCCCCC2)cc1,inconclusive: 2.5 nM
14,CCN(C(=O)CSc1nc2nc(C)cc(C)n2n1)c1cccc(C)c1,inconclusive: 1.7 nM
15,Cc1nc2c3cnn(-c4ccccc4)c3ncn2n1,inconclusive: 1.1 nM
16,CCOC(=O)c1ccc(NC(=O)CSc2nnc(C)n2-c2ccccc2)cc1,inconclusive: 1.2 nM
17,CCCCCOC(=O)Cc1c(O)c2ccccc2[nH]c1=O,inconclusive: 1.1 nM
18,CCN1C(=O)c2n[nH]c(C(=O)OC)c2C1=O,inconclusive: 1.4 nM
19,COCCn1c(SCC(=O)Nc2sc(C)c(C)c2C#N)nnc1-c1ccc(OC)cc1,inconclusive: 1.7 nM
20,Cc1ccc(-n2c(C)cc(C)c(C#N)c2=O)cc1Cl,inconclusive: 1.5 nM

# Part of the list above in another layout:
row	Structure (SMILES)	max dye-equivalent concentration
5	CCn1c(N2CCN(CC(=O)c3c[nH]c4ccccc34)CC2)nc2c1c(=O)[nH]c(=O)n2C	inconclusive: 1.5 nM
6	Cc1ccc(Nc2nnc(SCc3cc(=O)n4ccsc4n3)s2)c(C)c1	inconclusive: 2.3 nM
